# According to PubChem BioAssay AID540256 (National Center for Advancing Translational Sciences (NCATS), 2011):
# The campaign covered roughly 300,000 compounds. About 3,700 (1.2%) were called active. The inconclusive results got no clear call from the source; some entries with a clear call stand among them for comparison. Calls follow the shape of the full dose curve; tested in HEK293 cells. A potency beside an inconclusive call is a rough fit, not a confirmed value.
# Experiment: qHTS for Inhibitors of binding or entry into cells for Lassa Virus; also: nearly all actives have a fitted effect of over 50% in size
# Conditions: Lassa virus pseudotype entry inhibition, cell reporter; series mostly up to 37.9 µM
# Potency is read from the fitted curve at half-maximal effect.
row,SMILES,Potency
1,Cc1cccc(C)c1NC(=O)c1c(-c2ccccc2)noc1C,inactive
2,Cc1cccc(C)c1C(OCCN(C)C)C1CCCCC1 (centres undefined),"inconclusive: 25.9 µM [inhibitor, partial curve, poor fit]"
3,O=C(CC(c1ccccc1)c1cc(Br)ccc1O)NCc1ccco1 (centres undefined),"inconclusive: 22.4 µM [inhibitor, single point]"
4,CCOc1ccc(OCCCC(=O)NC2=NCCS2)cc1,"inconclusive: 4.61 µM [inhibitor, single point]"
5,Cc1cc(N(CCCl)CCCl)ccc1/C=N/N=C(\N)c1cnccn1,"inconclusive: 11.2 µM [inhibitor, partial curve, poor fit]"
6,CC(=O)N1CCc2cc(Br)cc(S(=O)(=O)N3CCC(C(=O)Nc4ccc(C(C)C)cc4)CC3)c21,"inconclusive: 35.5 µM [inhibitor, single point]"
7,COc1ccc(CCNC(=O)NS(=O)(=O)c2ccc(C)cc2)cc1OC,"inconclusive: 35.5 µM [activator, single point]"
8,Cc1nn(-c2ccc(NC(=O)c3ccncc3)cc2)c(C)c1Cl,"inconclusive: 0.794 µM [inhibitor, full curve, poor fit]"
9,CCCCOC(=O)Cn1c2ccc(OC)cc2c2nc3ccccc3nc21,inactive
10,CCOc1ccc(/C=C/c2nc(C#N)c(NC(C)c3ccccc3)o2)cc1 (centres undefined),"inconclusive: 12.6 µM [inhibitor, single point]"
11,COc1ccc(-c2nc3c(c4nnc(SC(C)C(=O)Nc5ccc(C)cc5)n24)COC(C)(C)C3)cc1 (centres undefined),inactive
12,COc1ccc(NC(=O)CCc2nnc3ccc(NCc4ccco4)nn23)cc1OC,"inconclusive: 22.4 µM [inhibitor, single point]"
13,Cn1ccsc1=NC(=O)c1ccc(S(C)(=O)=O)c([N+](=O)[O-])c1,"inconclusive: 35.5 µM [inhibitor, single point]"
14,Cn1ncc2c(N3CCN(c4ccccc4F)CC3)ncnc21,inactive
15,CCOc1ccc(CN(C)C(=O)CNC(=O)C2CCCCC2)cc1,inactive
16,Cc1ccc2ncc(NC(=O)c3ccc(F)cc3)c(=O)n2c1,"inconclusive: 1.26 µM [activator, single point]"
17,CCOc1ccc(CCNC(=O)CSc2nnnn2-c2ccccc2)cc1OCC,inactive
18,O=C(c1ccc(S(=O)(=O)N2CCCC2)cc1)N1CCN(c2cccc(Cl)c2)CC1,"inconclusive: 20 µM [inhibitor, partial curve, poor fit]"
19,COC(=O)c1cc(-c2ccc(F)cc2)n(-c2ccccc2)n1,"inconclusive: 28.2 µM [inhibitor, single point]"
20,O=S(=O)(c1ccc2ccccc2c1)N1CCN(C(=S)Nc2ccc(F)cc2)CC1,"inconclusive: 23.1 µM [inhibitor, single point]"
21,N#Cc1cccc(Cn2cc(C(F)(F)F)ccc2=O)c1,inactive
22,CC(C(=O)Nc1ccc(OC(F)(F)F)cc1)N1Cc2ccccc2C1=O (centres undefined),inactive

# Compounds above containing a carbonyl joined to an NH by a bond outside any ring:
row,SMILES,Potency
1,Cc1cccc(C)c1NC(=O)c1c(-c2ccccc2)noc1C,inactive
3,O=C(CC(c1ccccc1)c1cc(Br)ccc1O)NCc1ccco1 (centres undefined),"inconclusive: 22.4 µM [inhibitor, single point]"
4,CCOc1ccc(OCCCC(=O)NC2=NCCS2)cc1,"inconclusive: 4.61 µM [inhibitor, single point]"
6,CC(=O)N1CCc2cc(Br)cc(S(=O)(=O)N3CCC(C(=O)Nc4ccc(C(C)C)cc4)CC3)c21,"inconclusive: 35.5 µM [inhibitor, single point]"
7,COc1ccc(CCNC(=O)NS(=O)(=O)c2ccc(C)cc2)cc1OC,"inconclusive: 35.5 µM [activator, single point]"
8,Cc1nn(-c2ccc(NC(=O)c3ccncc3)cc2)c(C)c1Cl,"inconclusive: 0.794 µM [inhibitor, full curve, poor fit]"
11,COc1ccc(-c2nc3c(c4nnc(SC(C)C(=O)Nc5ccc(C)cc5)n24)COC(C)(C)C3)cc1 (centres undefined),inactive
12,COc1ccc(NC(=O)CCc2nnc3ccc(NCc4ccco4)nn23)cc1OC,"inconclusive: 22.4 µM [inhibitor, single point]"
15,CCOc1ccc(CN(C)C(=O)CNC(=O)C2CCCCC2)cc1,inactive
16,Cc1ccc2ncc(NC(=O)c3ccc(F)cc3)c(=O)n2c1,"inconclusive: 1.26 µM [activator, single point]"
17,CCOc1ccc(CCNC(=O)CSc2nnnn2-c2ccccc2)cc1OCC,inactive
22,CC(C(=O)Nc1ccc(OC(F)(F)F)cc1)N1Cc2ccccc2C1=O (centres undefined),inactive

# Next part

row,SMILES,Potency
1,Oc1cccc2ccc(/C=C/c3ccccc3Br)nc12,"inconclusive: 35.5 µM [inhibitor, single point]"
2,NCCc1nnc(SCc2ccccc2Cl)o1,inactive
3,C=CCn1cnc2c(NCc3ccccc3)ncnc21,inactive
4,CC(C)(C)c1ccc(Oc2coc3cc(OCC(=O)O)ccc3c2=O)cc1,"inconclusive: 35.5 µM [inhibitor, partial curve, poor fit]"
5,Cc1ccc(OCc2ccc(C(=O)Nc3c(C)nn(Cc4c(F)c(F)c(F)c(F)c4F)c3C)o2)c([N+](=O)[O-])c1,"inconclusive: 2.59 µM [inhibitor, full curve, poor fit]"
6,CC1CCN(c2nc(NCc3ccco3)nc(N)c2[N+](=O)[O-])CC1,"inconclusive: 2.51 µM [inhibitor, partial curve, poor fit]"
7,C=CCN(c1ccccc1C(=O)NCC(=O)O)S(=O)(=O)c1ccc(C)cc1,"inconclusive: 3.98 µM [inhibitor, single point]"
8,Cc1c(CC(C)C)nc(N)c(C#N)c1-c1ccccc1,"inconclusive: 28.2 µM [inhibitor, single point]"
9,CCn1ccnc1CNC(=O)C1CCC(=O)N(Cc2ccccc2F)C1 (centres undefined),inactive
10,COc1ccc(C(=O)COC(=O)c2cc(-c3cccs3)nc3ccccc23)cc1,active: 11.2 µM
11,COc1ccc(OC)c(Nc2sc(C(=O)c3ccccc3)c(N)c2S(=O)(=O)c2ccccc2)c1,"inconclusive: 0.891 µM [inhibitor, full curve, poor fit]"
12,O=C(Cn1ncc2c([nH]c3ccccc32)c1=O)NCCCN1CCN(c2ccccc2)CC1,inactive
13,Cc1cccc(N2CCN(S(=O)(=O)c3cc(C(=O)Nc4ccc(Oc5ccccc5)cc4)ccc3F)CC2)c1C,"inconclusive: 1.12 µM [inhibitor, full curve, poor fit]"
14,Cc1nnc(NC(=O)C2COc3ccccc3O2)s1 (centres undefined),"inconclusive: 3.55 µM [activator, single point]"
15,C[C@]1(C(=O)NCCCNc2ncc(C(F)(F)F)cc2Cl)C=C[C@@H](Cc2ccccc2)N1C(=O)c1ccccc1,"inconclusive: 20.6 µM [inhibitor, single point]"
16,O=C(Nc1cccc(Cl)c1N1CCOCC1)c1ccco1,"inconclusive: 35.5 µM [inhibitor, single point]"
17,COC(=O)c1ccc(CSc2ncnc3sc(C)c(C)c23)o1,"inconclusive: 20.6 µM [inhibitor, single point]"
18,COc1cc(C2N(c3ccccc3)CCN2c2ccccc2)ccc1OC(C)=O,inactive
19,COc1cc(NC(=O)c2cccs2)c(C(=O)OCC(=O)NC(C)c2ccccc2)cc1OC (centres undefined),"inconclusive: 2.06 µM [inhibitor, partial curve]"
20,COc1cccc(C(=O)NC(Cc2ccccc2)c2ccc3c(c2)OCCCO3)c1 (centres undefined),"inconclusive: 29.1 µM [inhibitor, single point]"
21,Cc1cc(/C=N/NC(=O)c2cccs2)c(C)n1-c1ccccc1,active: 2.06 µM
22,CCN(CC)c1nn2c(=O)c(C(=O)NCCc3ccccc3C)cnc2s1,inactive
